# Results from patent US20250353920A1 (SUBDOMAIN, published 2025).
# Chains of the proteins cited; added tags and fusions are not shown. Lines headed by an entry give the natural chain unless they say otherwise; changes in a name come on top. A line that says so, or that is headed by a name, gives the form on record, which may keep a tag or linker.
# cynomolgus PD-L1 (cynomolgus (Macaca fascicularis)) (G7PSE7, form named): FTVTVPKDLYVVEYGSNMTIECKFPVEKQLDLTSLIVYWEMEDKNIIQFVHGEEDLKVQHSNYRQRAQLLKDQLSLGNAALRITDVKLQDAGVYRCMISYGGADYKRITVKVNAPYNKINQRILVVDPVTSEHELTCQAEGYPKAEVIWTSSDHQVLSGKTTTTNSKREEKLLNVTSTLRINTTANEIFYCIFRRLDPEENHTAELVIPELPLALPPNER
# These are yes or no findings as the source states them, for the method shown. Some binding calls cover weakened binding; strength is not graded here.
# B1: CAR comprising a DBDpp (pb04) (protein, not shown: small tags and cut ends)
# chain: MGSWYEFTVRLEAIHERLKALGGSEAELAAFEKEIAAFESELQAYKGKGNPEVEILRDDAAFIRRFLQAYRHN
# Biological target: cynomolgus PD-L1 (cynomolgus (Macaca fascicularis)) (UniProt G7PSE7)
# Assay: flow cytometry
binder,measurement,value
B1,binding,binds
